No constants are given. Whether binding was seen depends on the method and setting. In cells and extracts the contact can be indirect. Some results given as binding are weak or reduced against the parent protein; the word gives no strength.
Biological target: RAD50 (human (endogenous in 293T)) (UniProt Q92878)
Assay: co-IP; RAD50 co-immunoprecipitation from HEK293T lysate (50 mM Tris-HCl pH 7.5, 150 mM NaCl, 0.5% NP-40, 5 mM MgCl2, 5% glycerol) with Benzonase, 4°C; antibody on Protein G Dynabeads; cells mock treated with DMSO (for NBS1 and MRE11 also cells treated with 100 μM mirin, 2.5 h); western blot

By UniProt entry, the sequences of proteins in these tests, tags left out.
UniProt Q92878: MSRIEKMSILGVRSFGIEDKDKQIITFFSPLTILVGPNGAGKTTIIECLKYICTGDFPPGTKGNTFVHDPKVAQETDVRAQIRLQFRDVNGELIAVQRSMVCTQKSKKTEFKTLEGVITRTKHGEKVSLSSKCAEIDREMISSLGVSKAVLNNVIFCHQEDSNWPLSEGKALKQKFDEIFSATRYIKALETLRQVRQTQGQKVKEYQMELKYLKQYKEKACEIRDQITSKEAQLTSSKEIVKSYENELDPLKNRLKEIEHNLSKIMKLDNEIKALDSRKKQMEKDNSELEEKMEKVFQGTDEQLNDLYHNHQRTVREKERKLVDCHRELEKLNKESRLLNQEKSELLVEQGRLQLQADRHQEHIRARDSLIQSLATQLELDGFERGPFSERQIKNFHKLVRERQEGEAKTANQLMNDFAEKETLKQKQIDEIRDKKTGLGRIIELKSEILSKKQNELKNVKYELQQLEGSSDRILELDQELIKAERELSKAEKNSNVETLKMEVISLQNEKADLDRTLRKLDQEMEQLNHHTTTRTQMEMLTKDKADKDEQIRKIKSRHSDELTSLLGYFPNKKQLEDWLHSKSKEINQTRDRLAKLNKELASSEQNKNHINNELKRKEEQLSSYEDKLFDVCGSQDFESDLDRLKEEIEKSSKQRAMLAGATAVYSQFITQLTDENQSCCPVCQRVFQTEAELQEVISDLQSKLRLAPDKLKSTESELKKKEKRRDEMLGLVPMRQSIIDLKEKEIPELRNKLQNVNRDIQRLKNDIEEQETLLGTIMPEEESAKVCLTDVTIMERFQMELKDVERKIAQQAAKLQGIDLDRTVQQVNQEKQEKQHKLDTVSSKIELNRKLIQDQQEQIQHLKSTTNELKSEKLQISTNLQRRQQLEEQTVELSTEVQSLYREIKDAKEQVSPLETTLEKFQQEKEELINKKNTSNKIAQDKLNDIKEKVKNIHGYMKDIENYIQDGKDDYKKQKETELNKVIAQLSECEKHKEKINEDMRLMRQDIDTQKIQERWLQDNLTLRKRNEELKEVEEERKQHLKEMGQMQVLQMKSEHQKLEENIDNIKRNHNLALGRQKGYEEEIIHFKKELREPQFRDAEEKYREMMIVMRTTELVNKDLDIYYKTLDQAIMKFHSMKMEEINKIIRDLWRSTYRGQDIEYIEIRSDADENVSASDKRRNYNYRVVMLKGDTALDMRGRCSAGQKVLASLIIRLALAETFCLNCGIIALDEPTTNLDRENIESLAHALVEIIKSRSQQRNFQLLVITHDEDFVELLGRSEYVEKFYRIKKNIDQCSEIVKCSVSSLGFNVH

- binding: binds
B1: DROSHA (protein, UniProt Q9NRR4 1-1374)
chain: MMQGNTCHRMSFHPGRGCPRGRGGHGARPSAPSFRPQNLRLLHPQQPPVQYQYEPPSAPSTTFSNSPAPNFLPPRPDFVPFPPPMPPSAQGPLPPCPIRPPFPNHQMRHPFPVPPCFPPMPPPMPCPNNPPVPGAPPGQGTFPFMMPPPSMPHPPPPPVMPQQVNYQYPPGYSHHNFPPPSFNSFQNNPSSFLPSANNSSSPHFRHLPPYPLPKAPSERRSPERLKHYDDHRHRDHSHGRGERHRSLDRRERGRSPDRRRQDSRYRSDYDRGRTPSRHRSYERSRERERERHRHRDNRRSPSLERSYKKEYKRSGRSYGLSVVPEPAGCTPELPGEIIKNTDSWAPPLEIVNHRSPSREKKRARWEEEKDRWSDNQSSGKDKNYTSIKEKEPEETMPDKNEEEEEELLKPVWIRCTHSENYYSSDPMDQVGDSTVVGTSRLRDLYDKFEEELGSRQEKAKAARPPWEPPKTKLDEDLESSSESECESDEDSTCSSSSDSEVFDVIAEIKRKKAHPDRLHDELWYNDPGQMNDGPLCKCSAKARRTGIRHSIYPGEEAIKPCRPMTNNAGRLFHYRITVSPPTNFLTDRPTVIEYDDHEYIFEGFSMFAHAPLTNIPLCKVIRFNIDYTIHFIEEMMPENFCVKGLELFSLFLFRDILELYDWNLKGPLFEDSPPCCPRFHFMPRFVRFLPDGGKEVLSMHQILLYLLRCSKALVPEEEIANMLQWEELEWQKYAEECKGMIVTNPGTKPSSVRIDQLDREQFNPDVITFPIIVHFGIRPAQLSYAGDPQYQKLWKSYVKLRHLLANSPKVKQTDKQKLAQREEALQKIRQKNTMRREVTVELSSQGFWKTGIRSDVCQHAMMLPVLTHHIRYHQCLMHLDKLIGYTFQDRCLLQLAMTHPSHHLNFGMNPDHARNSLSNCGIRQPKYGDRKVHHMHMRKKGINTLINIMSRLGQDDPTPSRINHNERLEFLGDAVVEFLTSVHLYYLFPSLEEGGLATYRTAIVQNQHLAMLAKKLELDRFMLYAHGPDLCRESDLRHAMANCFEALIGAVYLEGSLEEAKQLFGRLLFNDPDLREVWLNYPLHPLQLQEPNTDRQLIETSPVLQKLTEFEEAIGVIFTHVRLLARAFTLRTVGFNHLTLGHNQRMEFLGDSIMQLVATEYLFIHFPDHHEGHLTLLRSSLVNNRTQAKVAEELGMQEYAITNDKTKRPVALRTKTLADLLESFIAALYIDKDLEYVHTFMNVCFFPRLKEFILNQDWNDPKSQLQQCCLTLRTEGKEPDIPLYKTLQTVGPSHARTYTVAVYFKGERIGCGKGPSIQQAEMGAAMDALEKYNFPQMAHQKRFIERKYRQELKEMRWEREHQEREPDETEDIKK
